Measured data: PubChem BioAssay AID1259254 (NCATS, 2017)

- Aim: 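Genome-wide screen for genes that prevent DNA re-replication in cancer cells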 (primary screen)
- System: human HCT116 colorectal cancer cells
- Reagents: single siRNA against human genes
- Time to read-out: 3 days
- Detection: 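Nuclei stained with Hoechst and imaged; cell-cycle phase assigned by DNA content; G2 share scaled per plate, non-targeting siRNA 0%, GMNN siRNA 100%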
- Scale: G2 robust z-score and G2 cells, % of GMNN control: higher = more G2 cells, more excess DNA replication
- Hit rule: 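Active siRNAs have a G2 robust z of 5 or more median absolute deviations over the median, which in these data means about 38% or higher of GMNN control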
This is an unselected part of about 59,000 reagents tested. About 1,550 of all reagents (2.6%) count as active. 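G2 share is only a proxy for re-replication; each gene was hit by three separate siRNAs, and active genes were retested.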 The numbers tell different reagents against one gene apart. Not all columns of the deposit are shown. Not given: the amount of reagent.

| gene knocked down | siRNA no. | G2 robust z-score | G2 cells, % of GMNN control | Outcome |
| --- | --- | --- | --- | --- |
| RNASE13 (ribonuclease A family member 13 (inactive)) | 1 | -0.67 | -1.75 | inactive |
| RNASE13 (ribonuclease A family member 13 (inactive)) | 2 | 6.49 | 48.6 | active |
| RNASE13 (ribonuclease A family member 13 (inactive)) | 3 | 2.62 | 21.4 | inactive |
| SF3B6 (splicing factor 3b subunit 6) | 1 | 0.0439 | 3.28 | inactive |
| SF3B6 (splicing factor 3b subunit 6) | 2 | 0.0253 | 3.15 | inactive |
| SF3B6 (splicing factor 3b subunit 6) | 3 | 0.969 | 9.79 | inactive |
| GP6 (glycoprotein VI platelet) | 1 | -0.561 | -0.978 | inactive |
| GP6 (glycoprotein VI platelet) | 2 | -0.63 | -1.46 | inactive |
| GP6 (glycoprotein VI platelet) | 3 | -0.869 | -3.15 | inactive |
| TPRA1 (transmembrane protein adipocyte associated 1) | 1 | 2.95 | 23.7 | inactive |
| TPRA1 (transmembrane protein adipocyte associated 1) | 2 | -0.79 | -2.59 | inactive |
| TPRA1 (transmembrane protein adipocyte associated 1) | 3 | -0.0377 | 2.7 | inactive |
| MINDY2 (MINDY lysine 48 deubiquitinase 2) | 1 | 0.742 | 8.18 | inactive |
| MINDY2 (MINDY lysine 48 deubiquitinase 2) | 2 | -0.329 | 0.652 | inactive |
| MINDY2 (MINDY lysine 48 deubiquitinase 2) | 3 | -0.681 | -1.82 | inactive |
| EAF2 (ELL associated factor 2) | 1 | -0.0831 | 2.38 | inactive |
| EAF2 (ELL associated factor 2) | 2 | 1.62 | 14.4 | inactive |
| EAF2 (ELL associated factor 2) | 3 | -0.753 | -2.33 | inactive |
| URB1-DT (URB1 divergent transcript) | 1 | -0.472 | -0.355 | inactive |
| URB1-DT (URB1 divergent transcript) | 2 | -0.257 | 1.16 | inactive |
| URB1-DT (URB1 divergent transcript) | 3 | 0.00528 | 3 | inactive |
| S1PR4 (sphingosine-1-phosphate receptor 4) | 1 | -0.502 | -0.562 | inactive |
| S1PR4 (sphingosine-1-phosphate receptor 4) | 2 | 1.16 | 11.1 | inactive |
| S1PR4 (sphingosine-1-phosphate receptor 4) | 3 | -0.914 | -3.46 | inactive |
| H3-5 (H3.5 histone) | 1 | 0.564 | 6.93 | inactive |
| H3-5 (H3.5 histone) | 2 | 0.699 | 7.89 | inactive |
| H3-5 (H3.5 histone) | 3 | 0.727 | 8.08 | inactive |
| PRSS47P (serine protease 47, pseudogene) | 1 | -0.212 | 1.48 | inactive |
| PRSS47P (serine protease 47, pseudogene) | 2 | 1.8 | 15.6 | inactive |
| PRSS47P (serine protease 47, pseudogene) | 3 | 1.47 | 13.3 | inactive |
| SLBP (stem-loop histone mRNA binding protein) | 1 | 0.757 | 8.3 | inactive |
| SLBP (stem-loop histone mRNA binding protein) | 2 | -0.0973 | 2.28 | inactive |
| SLBP (stem-loop histone mRNA binding protein) | 3 | 1.51 | 13.6 | inactive |
| APCDD1L (APC down-regulated 1 like) | 1 | 0.164 | 4.12 | inactive |
| APCDD1L (APC down-regulated 1 like) | 2 | -1.27 | -5.97 | inactive |
| APCDD1L (APC down-regulated 1 like) | 3 | -0.561 | -0.979 | inactive |
| PPEF1 (protein phosphatase with EF-hand domain 1) | 1 | 2.86 | 23.1 | inactive |
| PPEF1 (protein phosphatase with EF-hand domain 1) | 2 | -0.124 | 2.09 | inactive |
| PPEF1 (protein phosphatase with EF-hand domain 1) | 3 | 1.1 | 10.7 | inactive |
| INO80E (INO80 complex subunit E) | 1 | -0.675 | -1.78 | inactive |
| INO80E (INO80 complex subunit E) | 2 | -0.517 | -0.668 | inactive |
| INO80E (INO80 complex subunit E) | 3 | 1.51 | 13.6 | inactive |
| CGNL1 (cingulin like 1) | 1 | -0.217 | 1.44 | inactive |
| CGNL1 (cingulin like 1) | 2 | -0.931 | -3.58 | inactive |
| CGNL1 (cingulin like 1) | 3 | 1.87 | 16.1 | inactive |
| C11orf97 (chromosome 11 open reading frame 97) | 1 | 0.172 | 4.18 | inactive |
| C11orf97 (chromosome 11 open reading frame 97) | 2 | -0.453 | -0.221 | inactive |
| C11orf97 (chromosome 11 open reading frame 97) | 3 | -0.463 | -0.288 | inactive |
| TEX30 (testis expressed 30) | 1 | 2.91 | 23.4 | inactive |
| TEX30 (testis expressed 30) | 2 | 0.937 | 9.56 | inactive |
| TEX30 (testis expressed 30) | 3 | 0.351 | 5.44 | inactive |
| TRMT6 (tRNA methyltransferase 6 non-catalytic subunit) | 1 | 2.65 | 21.6 | inactive |
| TRMT6 (tRNA methyltransferase 6 non-catalytic subunit) | 2 | 2.96 | 23.8 | inactive |
| TRMT6 (tRNA methyltransferase 6 non-catalytic subunit) | 3 | 0.718 | 8.02 | inactive |
| PGP (phosphoglycolate phosphatase) | 1 | 0.117 | 3.79 | inactive |
| PGP (phosphoglycolate phosphatase) | 2 | -0.847 | -2.99 | inactive |
| PGP (phosphoglycolate phosphatase) | 3 | -0.54 | -0.833 | inactive |
| LRRC36 (leucine rich repeat containing 36) | 1 | 0.017 | 3.09 | inactive |
| LRRC36 (leucine rich repeat containing 36) | 2 | -1.03 | -4.26 | inactive |
| LRRC36 (leucine rich repeat containing 36) | 3 | 0.13 | 3.88 | inactive |
| HSPA12A (heat shock protein family A (Hsp70) member 12A) | 1 | -0.486 | -0.451 | inactive |
| HSPA12A (heat shock protein family A (Hsp70) member 12A) | 2 | 0.81 | 8.66 | inactive |
| HSPA12A (heat shock protein family A (Hsp70) member 12A) | 3 | -0.401 | 0.149 | inactive |
| DLGAP1-AS5 (DLGAP1 antisense RNA 5) | 1 | -0.885 | -3.26 | inactive |
| DLGAP1-AS5 (DLGAP1 antisense RNA 5) | 2 | 0.101 | 3.67 | inactive |
| DLGAP1-AS5 (DLGAP1 antisense RNA 5) | 3 | 1.83 | 15.8 | inactive |
| CCT5 (chaperonin containing TCP1 subunit 5) | 1 | -0.0942 | 2.3 | inactive |
| CCT5 (chaperonin containing TCP1 subunit 5) | 2 | 0.969 | 9.78 | inactive |
| CCT5 (chaperonin containing TCP1 subunit 5) | 3 | 2.23 | 18.7 | inactive |
| LOC390846 (golgi SNAP receptor complex member 2 pseudogene) | 1 | 0.386 | 5.69 | inactive |
| LOC390846 (golgi SNAP receptor complex member 2 pseudogene) | 2 | 0.103 | 3.69 | inactive |
| LOC390846 (golgi SNAP receptor complex member 2 pseudogene) | 3 | -0.358 | 0.445 | inactive |
| FAM201B (family with sequence similarity 201 member B) | 1 | 4.34 | 33.5 | inactive |
| FAM201B (family with sequence similarity 201 member B) | 2 | 0.389 | 5.71 | inactive |
| FAM201B (family with sequence similarity 201 member B) | 3 | 1.1 | 10.7 | inactive |
| EFEMP1 (EGF-like fibulin extracellular matrix protein 1) | 1 | 0.832 | 8.82 | inactive |
| EFEMP1 (EGF-like fibulin extracellular matrix protein 1) | 2 | 0.0267 | 3.15 | inactive |
| EFEMP1 (EGF-like fibulin extracellular matrix protein 1) | 3 | -1.03 | -4.24 | inactive |
| BCAT1 (branched chain amino acid transaminase 1) | 1 | -1.25 | -5.79 | inactive |
| BCAT1 (branched chain amino acid transaminase 1) | 2 | -0.463 | -0.287 | inactive |
| BCAT1 (branched chain amino acid transaminase 1) | 3 | -0.816 | -2.77 | inactive |
| FANCD2OS (FANCD2 opposite strand) | 1 | -0.0271 | 2.78 | inactive |
| FANCD2OS (FANCD2 opposite strand) | 2 | 2.15 | 18.1 | inactive |
| FANCD2OS (FANCD2 opposite strand) | 3 | -0.739 | -2.23 | inactive |
| HIPK4 (homeodomain interacting protein kinase 4) | 1 | -1.22 | -5.6 | inactive |
| HIPK4 (homeodomain interacting protein kinase 4) | 2 | -0.0353 | 2.72 | inactive |
| HIPK4 (homeodomain interacting protein kinase 4) | 3 | -1.48 | -7.44 | inactive |

14 of these entries, reformatted.
PGP (phosphoglycolate phosphatase) #1 | G2 robust z-score = 0.117; G2 cells, % of GMNN control = 3.79; Outcome = inactive
PGP (phosphoglycolate phosphatase) #2 | G2 robust z-score = -0.847; G2 cells, % of GMNN control = -2.99; Outcome = inactive
PGP (phosphoglycolate phosphatase) #3 | G2 robust z-score = -0.54; G2 cells, % of GMNN control = -0.833; Outcome = inactive
LRRC36 (leucine rich repeat containing 36) #1 | G2 robust z-score = 0.017; G2 cells, % of GMNN control = 3.09; Outcome = inactive
LRRC36 (leucine rich repeat containing 36) #2 | G2 robust z-score = -1.03; G2 cells, % of GMNN control = -4.26; Outcome = inactive
LRRC36 (leucine rich repeat containing 36) #3 | G2 robust z-score = 0.13; G2 cells, % of GMNN control = 3.88; Outcome = inactive
HSPA12A (heat shock protein family A (Hsp70) member 12A) #1 | G2 robust z-score = -0.486; G2 cells, % of GMNN control = -0.451; Outcome = inactive
HSPA12A (heat shock protein family A (Hsp70) member 12A) #2 | G2 robust z-score = 0.81; G2 cells, % of GMNN control = 8.66; Outcome = inactive
HSPA12A (heat shock protein family A (Hsp70) member 12A) #3 | G2 robust z-score = -0.401; G2 cells, % of GMNN control = 0.149; Outcome = inactive
DLGAP1-AS5 (DLGAP1 antisense RNA 5) #1 | G2 robust z-score = -0.885; G2 cells, % of GMNN control = -3.26; Outcome = inactive
DLGAP1-AS5 (DLGAP1 antisense RNA 5) #2 | G2 robust z-score = 0.101; G2 cells, % of GMNN control = 3.67; Outcome = inactive
DLGAP1-AS5 (DLGAP1 antisense RNA 5) #3 | G2 robust z-score = 1.83; G2 cells, % of GMNN control = 15.8; Outcome = inactive
CCT5 (chaperonin containing TCP1 subunit 5) #1 | G2 robust z-score = -0.0942; G2 cells, % of GMNN control = 2.3; Outcome = inactive
CCT5 (chaperonin containing TCP1 subunit 5) #2 | G2 robust z-score = 0.969; G2 cells, % of GMNN control = 9.78; Outcome = inactive
